Drawing on PubChem BioAssay AID1508600 (Functional Genomics Laboratory (NCATS/FGL), 2020), this text covers z-score for 30 sequences.

Among all 53,000 sequences or so, about 3,700 (7%) were called active.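 The calls were made as follows: active = gene knockdowns whose robust z-score for IL-1 alpha signal is at least 2 or at most -2, so actives lie on both sides; inactive = the rest.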 Some of the results follow.

The test can be described thus: Components of the Cytosolic LPS Sensing Pathway: Gene Identification via Genome-wide siRNA Screen.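 Also: robust z of the log signal after scaling to non-targeting control siRNA wells of the plate.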 The settings on record: RAW264.7 macrophages, IL-1a HTRF, actives lie on both sides, screened at 100 nM (by protocol), cells primed 5 h with Pam3CSK4 first. In short, it runs like this: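 Read-out: IL-1a HTRF on supernatant, divided by plate negative-control median ×100, log-transformed and converted to robust z-score. Cells were RAW264.7 given 100 nM siRNA, Pam3CSK4-primed 5 hours, then LipidA-transfected 24 hour.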
For the sequence CCAGGUUCUGACCACCUACTT against Htr3a, the z-score is inactive: 0.819.
CCCAAAAAGUUCAAACAAGTT against Retreg1: the z-score was inactive: -0.872.
In the case of GCACUUGUGGAUCAAUACCTT against Efhd1 it was inactive: 0.179.
For CCAUUUCUUAGUGGGACUATT against Ogdh the value was inactive: 1.26; for CGGAUUCAGACCAAUUGGUTT against Zscan22, inactive: 0.549.
For GGACAAUGAGAUUCUUCUCTT against Mptx1 the value was inactive: -1.58; for GGAACUGGCUUCAAACCUUTT against Plac9a, inactive: -1.09; for GGGCAAUGAAUGACAUUGGTT against Gabrd, inactive: -0.368.
Regarding GCUGAUGUUUGUUAUGUACTT against Rgmb, the z-score was inactive: 0.365.
For GGGUGAACUCGGACAUUGATT against Spata19 the value was inactive: -0.754; for GGUGACCUACAAUCUCAAATT against Adam2, inactive: 0.987; for GGCAAAGUUUGGGAUUACATT against Ntng1, inactive: 1.17.
GGAAGAAGAUCACCAUCAUTT against Ifi204: the z-score is active: -2.64.
With GGUGGUAAUUGGUGUGGCATT against Slc9b2, the z-score was inactive: -0.188.
As for CGGUAGAGUCAGCAUUUGATT against Sez6, the z-score is inactive: -0.231.
In the case of GCUACAGCCACACCAAAGUTT against Nkx2-9 it was inactive: -1.33.
In the case of GGCUACUCAACCGAUAGUGTT against Mis18a, the z-score is inactive: 0.242.
As to GGUACCCACACAAUUUUUATT against Alg5, the z-score is inactive: -0.046.
In the case of CGAUCGGCGACCUUUUAGATT against Irak3 it was inactive: -0.527; in that of GGUCAAUGCUUACUAUUCATT against Kel, inactive: 1.6.
With CGUGGUUAGACCAAAUAUUTT against Mrps6, the z-score was inactive: -0.194.
With GGGUAACAUCUUCAGAUUUTT against Hcar2, the z-score was inactive: 0.495.
In the case of GGAGUGUGACAUUGGUGAUTT against Dusp22, the z-score is inactive: -0.0356.
Turning to GGUAAAAGUAGAAGCUAUUTT against Zbtb3, the z-score is inactive: -1.22.
On to CCAUGUCAAUAUAGCUGUCTT against Igfbpl1, for which the z-score is active: 2.25.
Turning to GGAAAGUCAUUUCCCUGUUTT against Sprr2h, the z-score was inactive: -0.986.
On to GGAGUUUCAACUCUUCUUCTT against Necab2, for which the z-score was inactive: -0.576.
With CCUCAGAAUUCGAAUGAACTT against Atad5, the z-score is inactive: 0.224.
GGUCUUUCUUCGAGGAGUCTT against Ccdc33: the z-score was inactive: -1.03.
For GGCAGAAUUCUUGAGAGAUTT against Kcnk10 the value was inactive: -1.3.
